Library screening results

Chains of the proteins cited; added tags and fusions are not shown.
UniProt E9BF75, entry or part of it: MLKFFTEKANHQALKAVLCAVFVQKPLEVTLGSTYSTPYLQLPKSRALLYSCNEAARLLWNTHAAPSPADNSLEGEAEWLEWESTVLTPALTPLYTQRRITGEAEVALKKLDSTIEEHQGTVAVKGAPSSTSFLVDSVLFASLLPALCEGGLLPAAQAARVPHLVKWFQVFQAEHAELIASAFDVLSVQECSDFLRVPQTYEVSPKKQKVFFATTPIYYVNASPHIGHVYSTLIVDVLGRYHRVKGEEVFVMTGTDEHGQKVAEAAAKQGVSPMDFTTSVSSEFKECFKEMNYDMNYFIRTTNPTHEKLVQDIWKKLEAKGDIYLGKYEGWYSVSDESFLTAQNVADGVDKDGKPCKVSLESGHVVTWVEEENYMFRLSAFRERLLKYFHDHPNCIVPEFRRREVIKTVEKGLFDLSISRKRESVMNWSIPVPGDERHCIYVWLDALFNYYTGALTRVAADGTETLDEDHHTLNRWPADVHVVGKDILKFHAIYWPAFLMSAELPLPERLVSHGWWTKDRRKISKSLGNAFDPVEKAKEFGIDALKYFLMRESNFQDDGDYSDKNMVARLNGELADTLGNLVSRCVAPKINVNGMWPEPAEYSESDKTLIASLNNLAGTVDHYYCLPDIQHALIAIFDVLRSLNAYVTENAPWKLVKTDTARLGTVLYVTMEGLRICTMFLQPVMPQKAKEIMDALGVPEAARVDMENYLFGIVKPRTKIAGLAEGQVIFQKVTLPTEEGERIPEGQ

Source: ChEMBL document CHEMBL3988442, “University of Dundee, Small-Polar-MMV Screening Library” (2021).

Results are percentages, as filed.
The controls that fix the scale are not given in the record; negative values are as filed.
Compounds were drawn at random from those tested, without regard to their results.

A: 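Assay on Mycobacterium tuberculosis, filed only as a heat shock assay from Cornell; the read-out is not stated. The concentration is filed as 10 mM, unlikely as a test dose, so the dose is not known. Higher reads as stronger inhibition (inferred: compounds with an IC50 in retests scored well above the rest). About 69,000 compounds were tested under these conditions; 1.4% (about 930) showed 50% or more at least once.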
B: 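Methionyl-tRNA synthetase (putative), Leishmania donovani (UniProt E9BF75). Primary screen of methionyl-tRNA synthetase; the read-out is not stated. The test concentration is not given. The values are filed as inhibition. Size under these conditions: about 68,000 compounds, about 24 of them at 50% or above in at least one test.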
C: 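Whole-cell assay for inhibitors of Mycobacterium tuberculosis growth, labelled Cornell in the record; the read-out is not stated. The concentration is filed as 10 mM, unlikely as a test dose, so the dose is not known. The record gives no direction; compounds strong in two other growth screens of this library score well above the rest, so higher reads as stronger inhibition. Of about 53,000 compounds tested this way, about 900 (1.7%) reached 50% or more in at least one test.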

Result for CCOCC1CN(C(=O)[C@H]2CCCO2)Cc2nnn(CC3CC3)c21 (stereo partly drawn) was A: -3.423%; B: 11.59%; C: -7.224%.
Result for CC(Cc1ccco1)NC(=O)CCn1cccn1 (stereo not drawn) was A: 5.918%; B: 4.032%; C: -6.606%.
Result for CCN(C)S(=O)(=O)N1C[C@@H]2CC[C@H](C1)N(Cc1cscn1)C2=O was B: 11.82%.
Result for COc1ccc(CN2CC[C@H](O)[C@@H]2Cc2cnn(C)c2)cc1.O=C(O)C(F)(F)F was A: 2.167%; C: 9.538%.
Result for CCOc1ccc(NC(C)=O)cc1S(=O)(=O)Nc1nnc(C)s1 was A: 14.56%; B: 8.467%; C: 20.65%.
Result for CCc1nnc2n1CCN(C(=O)c1ccc3cc[nH]c3c1)C2 was A: -0.9251%; B: 18.98%; C: 17.83%.
Result for CN1C(=O)C2(CCN(C(=O)c3ccccc3)CC2)c2cc(F)ccc21 was B: 18.49%.
Result for CC1CCN(C(=O)[C@H]2C[C@@H]3CCN(CC4CCOCC4)C[C@@H]3O2)CC1 was B: 11.78%.
Result for Cc1c(C(=O)NC2(C#N)CCSC2)cnn1-c1ccccc1Cl (stereo not drawn) was A: -36.61%; B: 13.53%.
Result for O=C(Nc1cc(C(F)(F)F)c[nH]c1=O)C1CCCN1 (stereo not drawn) was A: -4.965%; B: 15.45%; C: 15.67%.
Result for CCOCC(=O)NCC(CC)(OC)c1ccccc1 (stereo not drawn) was A: 7.709%; B: 5.755%; C: 9.653%.
Result for CN1CCCC1(CCCc1cccnc1)C(=O)NCc1nccn1C (stereo not drawn) was A: -14.93%; B: 19.37%; C: 2.514%.
Result for Cc1c(C(=O)NC2(C#N)CCSC2)nnn1-c1ccccc1Cl (stereo not drawn) was A: -6.444%; B: 9.023%.
Result for CCc1n[nH]c(C2CN(C(=O)c3ccnc(C)n3)CCO2)n1 (stereo not drawn) was A: -13.42%; B: 9.091%.
Result for [H][C@@]12CN(Cc3cnn(C)c3)C[C@@]1([H])N(Cc1ccncc1)C(=O)CO2 was A: 4.432%; C: 10.2%.
Result for O=C(c1cccs1)N1CCc2ncnc(C3CCOC3)c2CC1 (stereo not drawn) was A: -0.2986%; B: 10.99%; C: 0.8521%.
Result for O=C(C1CCOCC1)N1CCO[C@H]2[C@H](Oc3ccccn3)CC[C@@H]21 was B: -1.099%.
Result for COCCN1CC2(CCCN(C(=O)NCCc3cccs3)C2)CCC1=O (stereo not drawn) was A: 8.894%; B: 7.796%; C: -1.447%.
Result for Cc1cc(NCc2cc(C)oc2C(F)(F)F)n2nc(C)cc2n1 was A: 56.47%; B: 14.32%; C: -14.59%.
Result for CN(C)CC(=O)N1CC[C@H]2OCC[C@@]2(COCC2CC2)C1 was B: 11.59%.
Result for Cc1nc(C)n(C2CCCN(C(=O)c3cscn3)C2)n1 (stereo not drawn) was A: -15.79%; B: 7.669%.
Result for [H][C@]12CC[C@]([H])(CN(S(=O)(=O)N(C)C)C1)N(Cc1ccc(F)c(F)c1)C2 was A: 3.953%; C: -2.363%.
Result for Cc1cc2c(cc1NC(N)=O)OCO2 was A: 0.2573%; B: 0.7194%; C: 4.557%.
Result for CSCc1cccc(S(=O)(=O)NCc2cnn(C)c2C)c1 was A: -22.63%; B: 10.53%.

Some entries from above, unchanged:

* CCOCC(=O)NCC(CC)(OC)c1ccccc1 (stereo not drawn) : A: 7.709%; B: 5.755%; C: 9.653%
* CC1CCN(C(=O)[C@H]2C[C@@H]3CCN(CC4CCOCC4)C[C@@H]3O2)CC1 : B: 11.78%